Measurements as given in US7351843B2, “Furancarbonylguanidine derivatives, their preparation and pharmaceutical compositions containing them” (Korea Research Institute of Chemical Technology, priority 2003, dated 2008).
“Also recorded” adds a separate entry of the source. A number of entries come with more than one value. The other results are left out here. The source may hold further records. Results that share an entry differ for a reason that is not stated; they may come from other doses, times, organisms or constructs than stated.

Test system: ischemic rat heart
Test: Cardioprotective effect on in vivo ischemic rat heart model (LAD occlusion 45 min / reperfusion 90 min, infarct size)
Settings: anesthetized rats

Structure (SMILES)	Myocardial infarction rate (IS/AAR) (0.1 mg/Kg i.v.)	Myocardial infarction rate (IS/AAR) (0.3 mg/kg i.v.)	Myocardial infarction rate (IS/AAR) (1.0 mg/kg i.v.)	Myocardial infarction rate (IS/AAR) (3.0 mg/kg i.v.)
Cc1cc(C)cc(-c2ccc(C(=O)N=C(N)N)o2)c1	28.4%; also recorded: significant myocardial infration limiting effect			
Cc1ccc(F)cc1-c1ccc(C(=O)NC(=N)N)o1	significant myocardial infration limiting effect; also recorded: 43.3%			
N=C(N)NC(=O)c1ccc(-c2cccc(F)c2)o1		better than cariporide and 37.6%	better than cariporide and 31.8%	better than cariporide and 25.7%
COc1ccc(Cl)cc1-c1ccc(C(=O)NC(=N)N)o1	35.4%; also recorded: significant myocardial infration limiting effect			
COc1ccc(F)cc1-c1ccc(C(=O)N=C(N)N)o1	significant myocardial infration limiting effect; also recorded: 42.7%			
